Screen size: about 52,000 sequences; about 210 (0.4%) were called active.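 Rule for the calls: active = gene whose silencing raises cell survival under the drug, median off-target-corrected z-score across its silencing RNAs 2 or more; inactive = the rest.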 The list shows a part of the results.
Test: Resistance to Poly (ADP-Ribose) Polymerase inhibitor: Gene Identification via Genome-wide siRNA Screen
Settings: mouse BRCA2 R2336H ES cells, olaparib, CellTiter-Glo viability; hits give high values
Outline: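 Genome-wide siRNA screen (3 siRNAs/gene, 20 nM) in mouse ES cells carrying hypomorphic BRCA2 R2336H; olaparib 500 nM added 48 h post-transfection, CellTiter-Glo viability 72 h later. Normalized to plate-median negative control; MAD z-scores, gene median, seed-adjusted.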

Row | Sequence | z-score
1 | GGUGGACACACACAUCCACTT against Ampd2 | inactive: 0.517
2 | CGAGAGGUUUGUCCAUAGATT against Tac4 | inactive: 0.339
3 | CCUUAGCCCUCAUUCACAGTT against BC046404 | inactive: -1.35
4 | GGGAAUGGAGGUCCAGAUUTT against 1700027D21Rik | inactive: -3.07
5 | GCUAUGGAUCAAAGAAUUATT against Senp1 | inactive: 0.165
6 | GGAUUCCUGCUUAUCAAAUTT against Nut | inactive: -0.02
7 | GGAGUCAGUGAGGUACAUUTT against C230096C10Rik | inactive: -2.27
8 | GGACAAACUGCCCUUACAGTT against BC048671 | inactive: -1.05
9 | GGCCAACACUCAGAAAAGGTT against 4933409D10Rik | inactive: -0.601
10 | GGAAGUGCAAGAAAGAUAUTT against Ltbp3 | inactive: -0.545
11 | CCAGUGCGAUUCAAGAUUATT against Glrx1 | inactive: 1.33
12 | CGGUCGUGAGUUUGUAUAUTT against BC027061 | inactive: 0.503
13 | GGACAAUGUUUCCUCACUCTT against Xcl1 | inactive: -1.05
14 | GGUUUAUUGUAAUGGCUAATT against Olfr1271 | inactive: 0.734
15 | GCCAGUGGAAAAUUGACGUTT against BC053917 | inactive: -0.722
16 | AAUCAGUUUGAAAUGGUAGTT against Olfr255 | inactive: -0.616
17 | GGAAGUUAUUGGAGCUUUGTT against Olfr706 | inactive: -1.18
18 | GCGACUGCGUUCGUUAUUUTT against Matn1 | inactive: 1.01
19 | CGCGCUGUGACUUUCAAAATT against Ifitm1 | inactive: -0.223
20 | GGCUGUGACUAUGUUGUGCTT against Top3b | inactive: 0.826
21 | GCUGCAUCCGUAGAUGUUGTT against Fthfd | inactive: -0.992
22 | GCAUAAAACAGGGAACUUUTT against 4831428F09 | inactive: -1.37

Random excerpt: four entries already listed.
Row | Sequence | z-score
17 | GGAAGUUAUUGGAGCUUUGTT against Olfr706 | inactive: -1.18
10 | GGAAGUGCAAGAAAGAUAUTT against Ltbp3 | inactive: -0.545
12 | CGGUCGUGAGUUUGUAUAUTT against BC027061 | inactive: 0.503
5 | GCUAUGGAUCAAAGAAUUATT against Senp1 | inactive: 0.165

Remaining list, next part

Row | Sequence | z-score
23 | GCUGUAUCCUGUAGUGAGUTT against 4930422J18Rik | inactive: -0.132
24 | GGCUAAUGUGCUCUCUCAUTT against Olfr644 | inactive: 1.28
25 | GGAACUUCGUCAGUACAUUTT against Setdb1 | inactive: 0.892
26 | GGUCCACUUGCCAUCUAUUTT against Zfp54 | inactive: 0.817
27 | GGUAAUAGGAGAUACUGUGTT against Gzme | inactive: 0.464
28 | GCCUUUCAACUCACCAGCCTT against A630056B21Rik | inactive: -0.185
29 | GGGCAAAAAUCCUCUAAAUTT against Gas7 | inactive: -0.373
30 | GGUUUGAGUUUAGAGUUCATT against Axl | inactive: -0.701
31 | GGCUUUGGCGAUAAGACAUTT against Glud1 | inactive: -1.14
32 | GGGAUGUGGAACGUAUGGUTT against 1110038M16Rik | inactive: -0.0762
33 | GGGAGUGGUUGUCUAUUCCTT against 1110017C15Rik | inactive: -1.13
34 | CCCGGAUGAGGAAUUCAUGTT against Pdlim7 | inactive: -0.777
35 | AACAUGUCCAACCUAGGCATT against Leftb | inactive: -0.266
36 | GGAGAUUGGGAUCAAAGCCTT against Mthfd1 | inactive: -0.247
37 | GGAUGGUUAUCAGGAAAAUTT against Scel | inactive: 0.175
38 | GGCUUAUGUCCCAAAGCUATT against Nexn | inactive: 1.35
39 | GGAUUUGAGUACAAGAAACTT against Tada2l | inactive: 1.78
40 | GGAAAUUUAGAGUGGUUCGTT against 2410187C16Rik | inactive: -0.609
41 | GGACUUAUUAUGUGAGUGUTT against Ncbp2 | inactive: 1.9
42 | CCCUAAGGAUGGUAUAUUUTT against Hr6bn | inactive: -1.45
43 | GGACGAAUUCUGAUGUCUATT against 1110060M21Rik | inactive: -0.805
44 | GGUUUGUUUAGCUUGAAACTT against Ccr1 | inactive: 1.01

Row | Sequence | z-score
45 | GGAACCCAAGUAGCCUUGUTT against Serf2 | inactive: -0.582
46 | GGGCUCUUAUAUAAUAGUUTT against Slc36a2 | inactive: -1.01
47 | GGUUCAGAAUCAAUACGAGTT against Krt2-17 | inactive: -0.534
48 | GGACAUGUUCUCAUUUACATT against D030014N22Rik | inactive: 0.196
49 | CGAGCUAGAUGACUUACUATT against Pkp4 | inactive: 0.132
50 | GGACACACUACCGAACAUUTT against Gral | inactive: -3.31
51 | GGACAGCUCUCAGAAUUCUTT against Ctse | inactive: 2.28
52 | GGGCCAAGAAAACCUACACTT against Cyp11b2 | inactive: -1.14
53 | CGUCACCUACCAAGGAGAGTT against Enpp7 | inactive: 0.937
54 | GGAGACCUGGCAAAUGUAATT against Dctn5 | inactive: 0.918
55 | GGAAAAGUCCUGUAAAAUUTT against Dmrta1 | inactive: 0.431
56 | CUUCAAUACACGAGUUGUCTT against Olfr1126 | inactive: -0.1
57 | CGGAAAGUCCGGUUUCGAATT against AY616753 | inactive: 0.249
58 | CCCUAUUUGUCAACGAUUATT against 6430402H13Rik | inactive: -0.521
59 | GCCUGUGAACCUGUAUUGUTT against Unc5c | inactive: -0.71
60 | GCACCUGUUUGAGAUUACGTT against Arhgap22 | inactive: 0.841
61 | GGUCUGUUUCUGAACUCCUTT against Hace1 | inactive: 1.69
62 | GCCACUCUUAGUGCUAACUTT against 4930521E07Rik | inactive: -2.01
63 | CCAUGCUUAGCUCAAUAGUTT against Pla2g3 | inactive: -0.822
64 | GGAGAGGAGACACAUCAGUTT against Gnpat | inactive: 0.171
65 | GGAUACUUUGAGAACUACUTT against 1110002B05Rik | inactive: -0.271
66 | CCUCUUGAGUCGAGAUAUGTT against D430033N04Rik | inactive: 0.0348

— PubChem BioAssay AID1347423 (Functional Genomics Laboratory (NCATS/FGL), 2020)
